Values joined by “and” are separate entries in the source; they are usually repeats but may differ in a detail not shown here. Equal values may be shown once. In all, about 350,000 compounds went through this assay and about 1,200 (0.34%) were called active. The shares of active, inactive and inconclusive entries below differ from those in the screen. Calls come from the whole dose curve; as a rule, active = well fitted inhibition curve with a large enough effect; inconclusive = small, poorly fitted or top-dose-only effect; inactive = no such curve, though single readings can be large or run the other way. Potencies beside an inconclusive call are fits to weak or partial responses and may not hold up.
target: DNA repair nuclease/redox regulator APEX1 (Homo sapiens) (UniProt P27695); assay: qHTS Assay for Inhibitors of the Human Apurinic/apyrimidinic Endonuclease 1 (APE1); settings: recombinant APE1, TAMRA/BHQ-2 abasic DNA cleavage fluorescence; series mostly up to 65.8 µM; note: nearly all actives have a fitted effect of over 55% in size
In short: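 Endonuclease cleavage of a quenched abasic-site DNA duplex (50 nM) by APE1 (0.75 nM) was tracked by TAMRA dequenching. Compounds were preincubated with enzyme 15 min at room temperature; data normalized to buffer-only and DMSO wells plus NSC13755 control.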
Potency is the fitted concentration of half-maximal effect.

Chains of the proteins cited; added tags and fusions are not shown.
UniProt P27695, whole entry, looked up: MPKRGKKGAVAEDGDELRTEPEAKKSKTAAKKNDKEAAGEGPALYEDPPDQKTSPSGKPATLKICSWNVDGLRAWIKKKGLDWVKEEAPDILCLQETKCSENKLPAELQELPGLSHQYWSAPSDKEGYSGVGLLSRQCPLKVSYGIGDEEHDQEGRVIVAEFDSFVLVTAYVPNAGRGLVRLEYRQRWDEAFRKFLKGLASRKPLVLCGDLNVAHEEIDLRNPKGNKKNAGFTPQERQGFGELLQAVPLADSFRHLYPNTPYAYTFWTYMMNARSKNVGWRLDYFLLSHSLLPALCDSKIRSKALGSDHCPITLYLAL

SMILES	Potency
COc1ccc(COC(=O)N/N=C2/C[C@@H](O)[C@@H](O)[C@@H]3[C@@H]4C(=O)N(c5cccc(Oc6ccccc6)c5)C(=O)[C@H]4CC[C@@H]23)cc1	inconclusive: 8.91 µM [inhibitor, single point]
O=C1C(c2[nH]c3ccccc3c2O)=Nc2ccccc21	active: 7.94 µM and active: 3.98 µM
C=C[C@@H]1[C@@H](C)[C@H](C)C(=O)C([C@H](O)C(C)C)[C@@H]1C (some centres not stated)	inactive
O=c1nc2s/c(=C\c3ccco3)c(=O)n2nc1Cc1ccccc1	active: 4.47 µM
O=c1cc2c(nn1Cc1c(Cl)cccc1Cl)-c1ccccc1CC2	inconclusive: 0.794 µM [inhibitor, full curve]
Cc1cc(C)nc(S/C=C/C(=O)c2ccc(F)cc2)n1	inconclusive: 7.94 µM [inhibitor, single point]
c1nnc2c3c4c(sc3ncn12)CCCC4	inactive
CCC(=C/c1sc2ccc3ccccc3c2[n+]1C)/C=C1\Sc2ccc3ccccc3c2N1C	inconclusive: 37.7 µM [inhibitor, single point]
Cc1ccsc1/C=N/Nc1nc2ccccc2s1	inconclusive: 0.398 µM [inhibitor, full curve, poor fit]
CCCn1c(-c2ccc(F)cc2)nc2c(NCCCCN(CC)CC)nc(C)nc21	inconclusive: 31.6 µM [inhibitor, single point]
Cc1cc(C)cc(N2C(=O)CN(Cc3sccc3C)C2=S)c1	inactive
COc1ccc(S(=O)(=O)N2CCN(C(=O)c3cc4c(s3)CCC4)CC2)cc1	active: 2.67 µM
CNC(=O)Nc1cccc(-c2cc(-c3c(Cl)cccc3Cl)no2)c1	inconclusive: 8.91 µM [inhibitor, single point]
COC(=O)C1=COC(OC2OC(CO)C(O)C(O)C2O)C2C1C=CC2(O)CO (configuration not stated)	active: 7.94 µM
CCOC(CNC(=O)CCc1c(C)nc2ncnn2c1C)OCC	inconclusive: 8.91 µM [inhibitor, single point]
COc1ccc(S(=O)(=O)N2Cc3ccccc3CC2C(=O)Nc2ccc(O)cc2)cc1OC (configuration not stated)	inconclusive: 39.8 µM [inhibitor, partial curve, poor fit]
O=C1C=CC2(OCCCO2)C(Br)=C1CO	inactive
CC(=O)Nc1ccc(NC(=S)Nc2ccc(F)cc2)cc1	inconclusive: 1 µM [inhibitor, full curve, poor fit]
O=C(Cn1cnc2scc(-c3ccccc3)c2c1=O)NCc1ccco1	inconclusive: 39.8 µM [inhibitor, single point]
O=C(CSc1nnc(Nc2ccccc2F)s1)Nc1cccc(S(=O)(=O)N2CCCCC2)c1	inconclusive: 31.6 µM [inhibitor, single point]
CC(C)(C)C1C/C(=C/c2ccccn2)C(=O)/C(=C/c2ccccn2)C1 (configuration not stated)	inconclusive: 0.447 µM [inhibitor, single point]
CC(=O)OC[C@@H]1O[C@@H](O/N=C2/C[C@@H](O)[C@@H](O)[C@@H]3[C@@H]4C(=O)N(c5cccc(Oc6ccccc6)c5)C(=O)[C@H]4CC[C@H]23)[C@H](OC(C)=O)[C@H](OC(C)=O)[C@@H]1OC(C)=O	inconclusive: 8.91 µM [inhibitor, single point]
O=c1c(O[C@@H]2O[C@H](CO)[C@@H](O)[C@H](O)[C@H]2O)c(-c2ccc(O)c(O)c2)oc2cc(O)cc(O)c12	inconclusive: 3.16 µM [inhibitor, full curve]

SMILES	Potency
COc1ccc(-c2ccc(=O)n(CC(=O)NCc3ccco3)n2)cc1	inconclusive: 39.8 µM [inhibitor, single point]
CCOC(=O)[C@H]1[C@H]2COc3ccc(C)cc3[C@@H]2N2C(=O)CN(CC3CCCO3)C(=O)[C@@]12C (some centres not stated)	inconclusive: 23.8 µM [inhibitor, single point]
O=C(CN1C(=O)C(=O)N(C2CCCC2)C1=O)Nc1ccc(N2CCOCC2)cc1	inconclusive: 11.2 µM [inhibitor, partial curve, poor fit]
O=C(Nc1cccc(S(=O)(=O)N2CCOCC2)c1)c1c2c(nc3ccccc13)CCC2	inconclusive: 28.2 µM [inhibitor, single point]
O=C(O)C1C2CCC(O2)C1C(=O)Nc1ccc(O)cc1 (configuration not stated)	inactive
c1csc(-c2nn3c(-c4ccncc4)nnc3s2)c1	inactive
COc1ccc(/C(C)=N/Nc2ccccc2Cl)c(O)c1	inconclusive: 14.1 µM [inhibitor, partial curve]
O=C(OCC(=O)N1CCCc2ccccc21)c1cccnc1Cl	inconclusive: 44.7 µM [inhibitor, single point]
O=C(CSc1nnc(-c2ccccc2)n1-c1ccc(Cl)cc1)NNC(=S)Nc1ccccc1	inconclusive: 0.282 µM [inhibitor, full curve]
O=[N+]([O-])O[C@@H]1CO[C@H]2[C@@H]1OC[C@@H]2O	inactive
Cc1nc(-c2ccc(C(=O)O)cc2)cs1	inactive
Cc1nn(C)cc1C(=O)NNC(=S)Nc1ccccc1	inactive
CN(C(=O)CCN1C(=O)/C(=C/c2ccccc2)SC1=S)C1CCS(=O)(=O)C1 (configuration not stated)	inconclusive: 37.7 µM [inhibitor, single point]
O=C(COC(=O)CCNS(=O)(=O)c1cccc(C(F)(F)F)c1)NC(=O)NC1CCCCC1	inconclusive: 0.0028 µM [inhibitor, full curve, poor fit]
O=C1CC(c2ccco2)CC(O)=C1C=Nc1cc(Cl)cc(Cl)c1 (configuration not stated)	inconclusive: 31.6 µM [inhibitor, single point]
CC(=O)N1CCN(c2ccc(NCc3ccccc3)cc2)CC1	inactive
Oc1cccc(C=NCc2ccccc2)c1O	inconclusive: 3.55 µM [inhibitor, full curve]
CCN(CC)S(=O)(=O)c1ccc(C(=O)NCc2n[nH]c(=S)n2-c2ccc(Cl)c(Cl)c2)cc1	inactive
CC(CNc1ccccc1O)C(=O)O (configuration not stated)	inconclusive: 28.2 µM [inhibitor, partial curve]
CS(=O)(=O)N(CC(=O)N1CCCCCC1)Cc1ccc(Cl)cc1	inactive
CC(C)(C)OC(=O)C[C@H]1C/C=C\C[C@@H](CC(=O)N(CCO)Cc2ccccc2)C(=O)N[C@H](Cc2ccccc2)COC1=O	inconclusive: 21.2 µM [inhibitor, single point]
CCN(CC)S(=O)(=O)c1ccc(C(=O)NCCc2cc3c(OC)ccc(OC)c3[nH]c2=O)cc1	inconclusive: 39.8 µM [inhibitor, partial curve]
Cc1c(O)cc2c(c1O)C(=O)CC(c1ccccc1)O2 (configuration not stated)	inconclusive: 39.8 µM [inhibitor, single point]

Part of the list above, with bars between the fields:
SMILES | Potency
c1csc(-c2nn3c(-c4ccncc4)nnc3s2)c1 | inactive
COc1ccc(/C(C)=N/Nc2ccccc2Cl)c(O)c1 | inconclusive: 14.1 µM [inhibitor, partial curve]

Fetched by structure from above:
SMILES	Potency
O=C(CSc1nnc(-c2ccccc2)n1-c1ccc(Cl)cc1)NNC(=S)Nc1ccccc1	inconclusive: 0.282 µM [inhibitor, full curve]
COc1ccc(/C(C)=N/Nc2ccccc2Cl)c(O)c1	inconclusive: 14.1 µM [inhibitor, partial curve]

Further records:

SMILES	Potency
Cc1cccc(C)c1NC(=O)CN(C)CC(=O)N(C)CC(=O)Nc1ccccc1Br	inactive
O=C1C(C2=C(O)c3ccccc3C2=O)=Nc2ccccc21	inconclusive: 44.7 µM [inhibitor, single point]
CCOc1cc(C#N)c(NC(=O)CSc2nnnn2-c2ccc(OC)cc2)cc1OCC	inconclusive: 44.7 µM [inhibitor, single point]
O=C(O)CSc1cc(C(=O)c2ccccc2O)cn2c(=O)c3c4c(sc3nc12)CCCC4	inconclusive: 7.08 µM [inhibitor, full curve]
Cc1c(N2C(=O)/C(=C\c3ccccc3O)SC2=S)c(=O)n(-c2ccccc2)n1C	inactive
O=C(COc1ccc(C(=S)N2CCOCC2)cc1Cl)Nc1ccccc1Cl	inconclusive: 0.199 µM [inhibitor, full curve, poor fit]
COc1ccc2nc(NC(=S)N(C)C)sc2c1	inconclusive: 44.7 µM [inhibitor, single point]
Cc1nc(Nc2ccc3c(c2)OCO3)c2oc3ccccc3c2n1	inconclusive: 15.8 µM [inhibitor, partial curve]
CCC1=NN2C(=N)/C(=C\c3ccc(OCc4cc(=O)n5nc(CC)sc5n4)c(OC)c3)C(=O)N=C2S1	inconclusive: 20 µM [inhibitor, partial curve]
COc1cc(C2Nc3cccc4cccc(c34)N2)cc(OC)c1OC(C)=O	inactive
O=c1cc(Nc2ccc3c(c2)OCO3)[nH]c(=O)n1-c1ccc(Br)cc1	inactive
N#CC1=C(N)N(c2ccc(F)cc2)C2=C(C1c1ccc(O)cc1)S(=O)(=O)CC2 (configuration not stated)	inconclusive: 22.4 µM [inhibitor, partial curve, poor fit]
O=C(Nc1ccccn1)c1cccc(S(=O)(=O)N2CCCCC2)c1	inconclusive: 3.55 µM [inhibitor, single point]
CCN(CC)C(=O)Oc1ccc(Cl)c2cccnc12	inactive
CC1(C)S[C@@H]2[C@H](N3C(=O)C(c4ccccc4)NC3(C)C)C(=O)N2[C@H]1C(=O)O (some centres not stated)	inconclusive: 31.6 µM [inhibitor, single point]
Cc1ccc2c(CN3CCOCC3)cc(=O)oc2c1	inconclusive: 1.41 µM [inhibitor, full curve, poor fit]
O=C(Nc1nnc(SCc2ccccn2)s1)C1CC(=O)N(c2ccc(F)cc2)C1 (configuration not stated)	inactive
CCOC(=O)CCSc1n[nH]c(=S)s1	inactive
CC(=O)NC1C(=O)N=C(SCC(=O)Nc2ccc(C(F)(F)F)cc2Cl)NC1=O (configuration not stated)	inconclusive: 0.0355 µM [inhibitor, full curve, poor fit]
O=C(CCS(=O)(=O)c1ccc(F)cc1)Nc1nc(-c2ccncc2)cs1	inactive
COc1cc2ncnc(Nc3cccc(Cl)c3)c2cc1OC	inconclusive: 56.2 µM [inhibitor, partial curve, poor fit]

Source: PubChem BioAssay AID2517 (National Center for Advancing Translational Sciences (NCATS), 2010)
